Results published in PubChem BioAssay AID624291 (National Center for Advancing Translational Sciences (NCATS), 2012).
The campaign covered roughly 350,000 compounds. About 220 (0.063%) were called active. The inconclusive results got no clear call from the source; some entries with a clear call stand among them for comparison. Calls follow the shape of the dose curve; as a rule, active = well fitted activation curve with a large enough effect; inconclusive = small, poorly fitted or top-dose-only effect; inactive = no such curve, though single readings can be large or run the other way. Potencies of inconclusive entries are doubtful fits and often do not repeat.
Potency is read from the fitted curve at half-maximal effect.

Assay: qHTS for Activators of Integrin-Mediated Alleviation for Muscular Dystrophy; also: nearly all actives have a fitted effect of over 60% in size;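 as to activation: 100% = response of the positive control SU9516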
Settings: alpha7betagal myoblasts, beta-gal FDG fluorescence, 48 h; activation: at 38.3 µM (top of the series)
In short: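 Alpha7betagal+/- myoblasts (passage 13) were plated 16-24 hr, then exposed to compounds (1:260 dilution of DMSO stock) for 48 hours at 37C. After MPER lysis, β-galactosidase reporter activity was read as FDG fluorescence (ex 480/em 540) after 30 minutes.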
In the case of `O=[N+]([O-])c1ccc2c(c1)nc1n2CCSC1`, the Potency is reported as inconclusive: 5.01 µM [activator, single point].
For `COc1ccc(N2CCN(CC(=O)Nc3ncc(C)s3)CC2)cc1`, the Potency was inconclusive: 1.58 µM [activator, partial curve, poor fit].
With `S=C(NCCN1CCOCC1)N1CCN(c2cccc(Cl)c2)CC1` the Potency was “inactive”.
In the case of `CN(Cc1ccccc1)C(=O)CN1CCN(C(c2ccccc2)c2ccccc2)CC1`, the Potency is reported as “inactive”.
With `CCc1ccc2nc3nc(C)cc(C)c3c(N)c2c1` the Potency was “inactive”.
With `N#Cc1nc(-c2cccs2)oc1NCC1CCCO1` (stereo not given) the Potency was “inactive”.
In the case of `CC(C)(C)NC(=O)CN(C(=O)CCN1CCCc2ccccc21)C(C)(C)C`, the Potency is reported as inconclusive: 5.01 µM [activator, single point].
With `COc1ccc(-n2ccc(=O)c(C(=O)O)n2)cc1` the Potency was inconclusive: 28.2 µM [activator, single point].
With `CC1=NN(C(N)=S)C(=O)C1N=Nc1c(Cl)cc([N+](=O)[O-])cc1Cl` (stereo not given) the Potency was “inactive”.
In the case of `Cc1c(C(=O)Nc2ccc(F)cc2)oc2ccc(S(=O)(=O)N3CC(C)CC(C)C3)cc12` (stereo not given), the Potency is reported as “inactive”.
With `c1ccc(Cc2nnc(N3CCOCC3)c3ccccc23)cc1` the Potency was “inactive”.
In the case of `Cc1ccc(CN(C(=O)c2ccc([N+](=O)[O-])cc2)C2CCS(=O)(=O)C2)o1` (stereo not given), the Potency is reported as inconclusive: 2.82 µM [activator, partial curve, poor fit].
In the case of `CCOc1ccc(-c2n[nH]c(=S)o2)cc1`, the Potency is reported as inconclusive: 5.01 µM [activator, single point].
With `Cc1nn(CC(=O)NCCCN2CCCCC2C)c(=O)c2cccn12` (stereo not given) the Potency was inconclusive: 28.2 µM [activator, single point].
In the case of `CC1CCCCN1C(=O)COC(=O)C1CCN(S(=O)(=O)c2ccc(Cl)c(C(F)(F)F)c2)CC1` (stereo not given), the Potency is reported as inconclusive: 10 µM [activator, single point].
For `CC1CCCCC1NC(=O)CCS(=O)(=O)c1cc2c(cc1Cl)NC(=O)CO2` (stereo not given), the Potency was inconclusive: 12.6 µM [activator, single point].
With `Cc1cccc(NC(=O)CNC(=O)N2CC(=O)Nc3ccccc32)c1C` the Potency was inconclusive: 1.12 µM [activator, single point].
In the case of `CCCCC(=O)NC(c1ccc(N(CC)CC)cc1)c1ccc2cccnc2c1O` (stereo not given), the Potency is reported as “inactive”.
With `CCC(=O)Nc1ccc2c(c1)nc1n2CCN(C2CCCCC2)C1` the Potency was inconclusive: 3.98 µM [activator, partial curve, poor fit].
For `Cc1cc(C)n2nc(CC(=O)NNC(=O)COc3ccccc3)nc2n1`, the Potency was inconclusive: 28.2 µM [activator, single point].
In the case of `CC1CCCCN1C(=O)C1CCCN(S(=O)(=O)c2cccc3nsnc23)C1` (stereo not given), the Potency is reported as inconclusive: 3.98 µM [activator, single point].
For `COc1ccccc1NC(=O)CSc1ccc2nnc(CCNC(=O)c3ccccc3)n2n1`, the Potency was inconclusive: 0.447 µM [activator, partial curve, poor fit].
With `Cc1noc(N)c1C1(O)C(=O)Nc2c(Cl)cc(Cl)cc21` (stereo not given) the activation was inconclusive: -3.62% [activator].
For `Cc1nc(NC(=O)c2ccccc2O)sc1C`, the Potency was inconclusive: 3.16 µM [activator, partial curve, poor fit].
With `COc1ccc(C2c3c(ncn(CCCO)c3=N)Oc3ccc4ccccc4c32)cc1` (stereo not given) the Potency was “inactive”.
With `O=C(CCCC(=O)c1ccccc1)NCCc1ccccc1F` the Potency was “inactive”.
In the case of `CCCCCCCCCCCCCCCCn1cc[n+](C)c1`, the activation is reported as inconclusive: -37% [activator].
For `COC(=O)CSc1nc(C)cc(Oc2ccccc2)n1`, the Potency was “inactive”.
For `COc1ccc(Cn2cnc3c4cc(F)ccc4n(C)c3c2=O)cc1`, the Potency was inconclusive: 22.4 µM [activator, single point].
For `Cc1cc(C)n(-c2ccc(S(=O)(=O)N3CCCC3)cc2[N+](=O)[O-])n1`, the Potency was inconclusive: 5.01 µM [activator, single point].
For `Cc1csc(NC(=O)CCNC(=O)c2ccc([N+](=O)[O-])cc2)n1`, the Potency was inconclusive: 5.62 µM [activator, single point].
For `Cc1cc(S(=O)(=O)NCC(C)C)ccc1OCC(=O)NCc1ccco1`, the Potency was inconclusive: 28.2 µM [activator, single point].
In the case of `Cc1cc(N)n(-c2ccc(C)c(C)c2)n1`, the Potency is reported as inconclusive: 5.01 µM [activator, single point].
With `CN(Cc1ccc2nsnc2c1)Cc1nc(Cc2cccc(F)c2)no1` the Potency was inconclusive: 2.82 µM [activator, single point].
In the case of `O=C(Cc1ccccc1)Nc1nnc(-c2ccco2)s1`, the Potency is reported as “inactive”.
For `CC(C)c1ccc(S(=O)(=O)c2n[nH]n3c2nc(=O)c2ccccc23)cc1`, the Potency was “inactive”.
With `O=C(OCC(=O)N1CCN(c2ccccc2)CC1)c1ccc[n+]([O-])c1` the Potency was inconclusive: 5.01 µM [activator, single point].
With `Cc1ccc2oc(=O)n(CCOc3ccccc3C)c2c1` the activation was inconclusive: 97.3% [activator].
With `COc1ccccc1-c1ccc(SCc2ccccc2)nn1` the Potency was inconclusive: 0.316 µM [activator, full curve, poor fit].
For `O=C(O)CCNC(=O)/C(=C/C=C/c1ccccc1)NC(=O)c1ccccc1`, the Potency was inconclusive: 28.2 µM [activator, single point].
With `CC(C)C(=O)NC(c1cccc([N+](=O)[O-])c1)c1ccc2cccnc2c1O` (stereo not given) the Potency was “inactive”.
For `O=[N+]([O-])/C(N=Nc1ccccc1)=N\Nc1ccccc1`, the Potency was inconclusive: 2.24 µM [activator, partial curve, poor fit].
With `CC1(c2ccc3ccccc3c2)NC(=O)NC1=O` (stereo not given) the Potency was inconclusive: 0.891 µM [activator, full curve, poor fit].
For `COc1cc(/C=N/NS(=O)(=O)c2ccc(C)cc2)ccc1OCc1ccc(C(=O)O)cc1`, the Potency was inconclusive: 5.01 µM [activator, single point].
With `COc1ccc(C(=O)CN2CCN(c3ccc(Cl)cc3)CC2)cc1OC` the Potency was inconclusive: 4.47 µM [activator, single point].
In the case of `C#CCOCCOCCOCCNc1nc(N2CCN(C(=O)Cn3cc(CC(C)O)nn3)CC2)nc(N2CCN(C(=O)[C@H](CCCCN)n3cc(CCC(=O)O)nn3)CC2)n1` (stereo not given in full), the Potency is reported as inconclusive: 4.47 µM [activator, single point].
In the case of `Cc1ccc(Cn2c(SCC(C)C)nc3c2c(=O)n(C)c(=O)n3C)cc1`, the Potency is reported as inconclusive: 3.98 µM [activator, single point].
With `CCOc1ccc(OCc2ccc(C(=O)N/N=C(\C)c3ccccn3)cc2)cc1` the Potency was “inactive”.
For `CC(=O)c1ccc(OC(=O)COc2ccccc2)cc1`, the Potency was inconclusive: 1.41 µM [activator, partial curve, poor fit].
For `COc1cccc(C2CC3(CC(C)(C)NC(=S)N3)Oc3cc(O)ccc32)c1` (stereo not given), the Potency was “inactive”.
With `COc1cc(/C=N/NC(=O)NC23CC4CC(CC(C4)C2)C3)ccc1OCC(N)=O` the Potency was “inactive”.
With `Cc1ccn2c(NCc3ccccc3)c(-c3cccs3)nc2c1` the Potency was “inactive”.
For `Cc1ccn2cc(C(=O)Nc3ccccc3N3CCOCC3)nc2c1`, the Potency was inconclusive: 15.8 µM [activator, single point].
In the case of `CC(=O)c1cccc(Nc2ncnc3ccc(Br)cc23)c1`, the Potency is reported as inconclusive: 1.78 µM [activator, partial curve, poor fit].
With `NS(=O)(=O)c1ccc(CCNC(=O)c2ccc3c(c2)OCO3)cc1` the Potency was inconclusive: 10 µM [activator, partial curve, poor fit].
For `Cc1cc(-c2ccc(N3CCOCC3)cc2)nc2ccccc12`, the Potency was “inactive”.
For `O=C(O)CNC(=O)c1ccc(NS(=O)(=O)c2ccc3ccccc3c2)cc1`, the Potency was inconclusive: 5.01 µM [activator, single point].
In the case of `COc1ccc(/C=C2\CCC/C(=C\C=N\N(C)C)C2=O)cc1`, the Potency is reported as “inactive”.
For `Cc1ccc2nc3c(cc(C(=O)NCCN4CCOCC4)c(=N)n3CCCN3CCOCC3)c(=O)n2c1`, the Potency was “inactive”.
For `COc1ccccc1CN1CC(C(=O)NCCc2ccccc2Cl)CCC1=O` (stereo not given), the Potency was inconclusive: 10 µM [activator, single point].
In the case of `CCOC(=O)Cn1nc(C)c(NC(=O)CCc2ccccc2)c1C`, the Potency is reported as inconclusive: 5.01 µM [activator, partial curve, poor fit].
In the case of `O=[N+]([O-])c1ccc2nc[nH]c2c1`, the Potency is reported as inconclusive: 28.2 µM [activator, single point].
With `NC(=O)c1ccccc1NS(=O)(=O)c1ccc(F)cc1` the Potency was inconclusive: 3.55 µM [activator, single point].
In the case of `CS(=O)(=O)N(CC(=O)NCc1ccncc1)c1ccc(F)c(Cl)c1`, the Potency is reported as inconclusive: 14.1 µM [activator, single point].
For `O=C(Cn1c(NCCO)nc2ccccc21)c1ccc(F)cc1`, the Potency was inconclusive: 3.55 µM [activator, single point].
For `CCN(C(=O)COC(=O)Cn1c(=O)oc2ccccc21)c1c(N)n(Cc2ccccc2)c(=O)[nH]c1=O`, the Potency was inconclusive: 7.94 µM [activator, single point].
For `Cc1cc(C)n2cc(CSc3ccc(Cl)cc3)nc2n1`, the Potency was inconclusive: 7.94 µM [activator, partial curve, poor fit].
With `COc1ccc(NC(C)C(=O)N/N=C/c2ccccc2OCc2ccc(Br)cc2)cc1` (stereo not given) the Potency was “inactive”.
With `O=C(NC(=S)NC(=O)c1ccccc1F)c1ccccc1F` the Potency was inconclusive: 28.2 µM [activator, single point].
With `C/C(CCC1CC(C)OC1=O)=N/Nc1nc(-c2ccccc2)cs1` (stereo not given) the Potency was inconclusive: 5.01 µM [activator, single point].
